Several values for one entry are separate records, joined by “and”; a condition that tells them apart may be missing. Identical values can stand only once. Among all 59,000 compounds or so, about 35 (0.06%) were called active. This list was built around the results that the source calls inconclusive (neither active nor inactive); the mix of calls is not that of the screen. Rule as the data show it: active = max dye-equivalent concentration above about 10 nM; inconclusive = between about 1.1 nM and that limit; inactive = weaker than that.
Experiment: qHTS Assay for Spectroscopic Profiling in Texas Red Spectral Region
Conditions: Compound fluorescence, Texas Red channel, 547/618 nm; stronger effect = higher value
Source text: NIH Molecular Libraries Screening Centers Network [MLSCN] NIH Chemical Genomics Center [NCGC] […] Occasionally, the artifactual effect may originate from the compound#s own spectral or other biophysical properties which generally tend to track its assay concentration. Pre-screening/profiling the library with respect to the compounds# spectral properties should help one exclude false positives early on. While the most informative fluorescent profiling data set is obtained by performing a full excitation and emission scan of each well by using a monochromator-based plate reader, such an approach is practical only on a very limited scale as scanning each well requires long time. An alternative approach, applied here, is to perform plate reader scans using selected excitation and emission wavelength pairs to generate a multidimensional relational database that correlates compound concentration and the respective relative fluorescence intensity at a given wavelength set. A standard curve of Texas Red (TR) present on each plate as six-point concentration series, was used to compute a normalized fluorescence response, termed dye-equivalent concentration, for each compound at each concentration.
NCGC Assay Protocol Summary: Buffer: 100 mM Tris buffer, pH 8.0 Dye standard plate: The wells in columns 1 through 4 of a Kalypsys polypropylene 1536-well compound plate were filled with standard solutions of fluorophore corresponding to the spectral region of interest. Solutions of TR were placed in the following wells: U1, V1: 3 mM, U2, V2: 300 uM, U3, V3: 30 uM, U4, V4: zero (DMSO), W1, X1: 3 uM, W2, X2: 900 nM, W3, X3: 300 nM, W4, X4: zero (DMSO). Assay Steps: Six uL of buffer were dispensed to 1536-well Greiner black plates. Compounds and dye standards (23 nL) were transferred via Kalypsys PinTool. The plates were incubated for 15 min at room temperature, and then read on ViewLux (Perkin-Elmer) High-throughput CCD imager using 547 nm and 618 nm excitation and emission filter set. Keywords: NIH Roadmap, MLSCN, MLI, MLSMR, qHTS, NCGC, Texas Red, Fluorescent Profiling.

SMILES | max dye-equivalent concentration
NC(=NCCC[C@@H](N)C(=O)O)N[N+](=O)[O-] | inconclusive: 1.1e-09 M
O=C(COc1ccccc1)N1CCN(C/C=C/c2ccccc2)CC1 | inconclusive: 1.1e-09 M
C=CCCN1C[C@@H]2C[C@H](C1)c1cccc(=O)n1C2 | inactive
CCC(=NCC1CCCO1)c1c(O)[nH]c(=O)[nH]c1=O (stereo not drawn) | inconclusive: 1.2e-09 M
C[C@@]12CC[C@H](O)C[C@@H]1CC[C@H]1[C@H]2C[C@@H](O)[C@]2(C)[C@@H](C3=CC(=O)OC3)CC[C@@]12O | inactive
CCNC(C)(C)[C@@H](SS)c1ccc(Br)cc1 | inactive
CCN(CC)CCCN=C(C)c1c(O)n(-c2ccccc2)c(=O)[nH]c1=O | inconclusive: 1.2e-09 M
C[C@]12N[C@H](Cc3ccccc31)c1ccccc12 | inconclusive: 1.6e-09 M
Cc1cc(N2C(=O)CC(N3CCC(n4c(=O)[nH]c5ccccc54)CC3)C2=O)no1 (stereo not drawn) | inconclusive: 1.1e-09 M
CCCCCCn1c(N)c(C(=O)NCCN2CCOCC2)c2nc3ccccc3nc21 | inconclusive: 1.3e-09 M
CC(Cc1ccccc1)[n+]1cc(/N=C(\[O-])N(C)C)on1 (stereo not drawn) | inconclusive: 1.7e-09 M
N[C@H](CCCCCP(=O)(O)O)C(=O)O | inconclusive: 1.2e-09 M
Cc1nn(C)c(C)c1P(=S)(c1c(C)nn(C)c1C)N(C)C | inconclusive: 1.4e-09 M
CN1C[C@H](CO)C=C2c3cccc4[nH]cc(c34)C[C@H]21 | inactive
N#CC1=C(N)Oc2c(c(=O)oc3ccccc23)C1c1cccnc1 (stereo not drawn) | inconclusive: 1.2e-09 M
CN(N=O)c1cc(O)ccc1O | inconclusive: 1.2e-09 M
CO[C@@H](C)[C@](O)(C(=O)OC1=CCN2CC[C@H](O)[C@H]12)C(C)C | inactive
CC(C)C1(C)N=C(c2nc3ccccc3cc2C(=O)O)NC1=O (stereo not drawn) | inconclusive: 1.1e-09 M
NC[C@@H](CC(=O)O)c1ccc(Cl)cc1 | inconclusive: 1.7e-09 M
CN(C)[C@@H]1C(=O)C(C(N)=O)=C(O)[C@]2(O)C(=O)C3=C(O)c4c(O)cccc4[C@@](C)(O)[C@@H]3C[C@@H]12 | inactive
CCC(=NCCO)c1c(O)n(-c2ccccc2)c(=O)[nH]c1=O | inconclusive: 1.3e-09 M

SMILES | max dye-equivalent concentration
CN1CCN(c2ccc([N+](=O)[O-])c3[nH]o[n+](=O)c23)CC1 | inactive
C[C@H](c1ccccc1)N1CCN([C@@H](C)c2ccccc2)CC1 | inconclusive: 1.4e-09 M
Oc1ccc2c3c1O[C@@H]1c4[nH]c5c(c4C[C@@]4(O)[C@@H](C2)N(CC2CC2)CC[C@]314)C[C@]1(O)[C@@H]2Cc3ccc(O)c4c3[C@@]1(CCN2CC1CC1)[C@H]5O4 | inactive
CC[C@H](CO)NC(=O)[C@@H]1C=C2c3cccc4c3c(cn4C)C[C@@H]2N(C)C1 | inactive
N[C@@H]1CCc2cc(O)c(O)cc2C1 | inconclusive: 1.4e-09 M
O=C(c1ccc(CS(=O)(=O)c2ccc(Br)cc2)o1)N1CCC2(CC1)OCCO2 | inconclusive: 1.7e-09 M
C[C@@H]1CCC/C=C\[C@H]2C[C@H](O)C[C@@H]2[C@H](O)/C=C\C(=O)O1 | inactive
COc1ccc(Cn2c(N)c(C(=O)NCc3ccco3)c3nc4ccccc4nc32)cc1OC | inactive
CNCCc1c[nH]c2ccc(O)cc12 | inconclusive: 1.1e-09 M
CCC1(CC)C(=O)C=CNC1=O | inconclusive: 1.6e-09 M
C=Cn1c(P(=S)(N2CCOCC2)N2CCOCC2)cc2c1CCCC2 | inconclusive: 1.3e-09 M
CCCN1CCc2cccc3c2[C@@H]1Cc1ccc(O)c(O)c1-3 | inactive
C[C@@H]1O[C@H](OC2[C@@H](O)[C@H](O)C(O)[C@H](O)[C@H]2O)[C@@H](N)C[C@@H]1N=C(N)C(=O)O (stereo partly drawn) | inconclusive: 1.4e-09 M
CC[C@H]1CN2CC[C@@H]1C[C@@H]2[C@H](O)c1ccnc2ccccc12 | inactive
Clc1cc(I)cc(Cl)c1NC1=NCCN1 | inconclusive: 1.1e-09 M
COc1ccc2c3c([nH]c2c1)C(C)=NCC3 | inactive
CCOCCCNC(=O)CN1C2CCC1CC(O)(c1ccc(OC)cc1)C2 (stereo not drawn) | inconclusive: 1.1e-09 M
CN1C(=O)C(Cc2c[nH]c3ccccc23)C(=O)N(C)C1=O | inconclusive: 3.7e-09 M
CC(C)NS(=O)(=O)c1ccc(OCC(=O)N2CCN(Cc3ccccc3)CC2)cc1 | inconclusive: 1.2e-09 M
O=C1CC[C@]2(O)[C@H]3Cc4ccc(O)c5c4[C@@]2(CCN3CC2CC2)[C@@H]1O5 | inconclusive: 1.1e-09 M
CCOC(=O)C(O)(c1ccc(N)c(OC)c1)C(F)(F)F (stereo not drawn) | inconclusive: 1.1e-09 M

SMILES | max dye-equivalent concentration
Cc1c([C@@H](C)[C@H]2NC[C@H](C)C[C@@H]2O)ccc2c1C[C@@H]1[C@H]2CC=C2C[C@@H](O)CC[C@@]21C | inactive
CC(C)[C@@]1(NC(=O)[C@@H]2C=C3c4cccc5[nH]cc(c45)C[C@@H]3N(C)C2)O[C@]2(O)[C@H]3CCCN3C(=O)[C@H](Cc3ccccc3)N2C1=O | inactive
CC[C@H](CO)NC(=O)[C@@H]1C=C2c3cccc4[nH]cc(c34)C[C@@H]2N(C)C1 | inactive
CC[C@@]1(c2ccc(N)cc2)CCC(=O)NC1=O | inconclusive: 1.2e-09 M
O=c1ccc2cc(O[C@@H]3O[C@@H](CO)[C@@H](O)[C@@H](O)[C@H]3O)c(O)cc2o1 | inactive
NCCc1ccc(O)cc1 | inconclusive: 1.4e-09 M and inconclusive: 1.5e-09 M
COc1ccc2c(c1)c(C(=O)CN1CCN(C)CC1)c(C)n2Cc1ccccc1 | inconclusive: 1.2e-09 M
CC[C@H]1[C@@H]2C[C@@H]3[C@@H]4N(C)c5ccccc5[C@@]45C[C@@H]([C@H]2[C@@H]5O)N3[C@@H]1O | inactive
CN1C[C@H](C(=O)N[C@@]2(C)O[C@@]3(O)[C@H]4CCCN4C(=O)[C@@H](Cc4ccccc4)N3C2=O)C=C2c3cccc4[nH]cc(c34)C[C@@H]21 | inactive
CC(C)OC(=O)c1c(N)n(Cc2ccco2)c2nc3ccccc3nc12 | inactive
COc1ccc2c(c[n+](C)c3c4cc5c(cc4ccc23)OCO5)c1OC | inconclusive: 1.3e-09 M
C=CCn1c(O)c(C=Nc2ccc(N(CC)CC)cc2)c(=O)[nH]c1=O | inactive
C[C@@]12CC[C@H]3[C@@H](CCC4=CC(=O)CC[C@]43C)[C@H]1CCC2=O | inactive
CCOC(=O)CC1=C(C(=O)OCC)C2(C(=O)Nc3ccccc32)C(C#N)=C(N)O1 (stereo not drawn) | inconclusive: 1.5e-09 M
CCN1CCC2(CCNC2)C1 (stereo not drawn) | inconclusive: 1.9e-09 M
C=C(C)[C@H]1[C@H]2OC(=O)[C@@H]1[C@]1(O)C[C@H]3O[C@]34C(=O)O[C@H]2[C@]14C | inactive
CN1C[C@H](CO)C=C2c3cccc4[nH]cc(c34)C[C@@H]21 | inactive
N[C@@H](Cc1cc(Br)c(O)c(Br)c1)C(=O)O | inactive
C=C(C)CSc1nnc([C@@H](N)Cc2c[nH]c3ccccc23)o1 | inconclusive: 1.6e-09 M
FC(F)(F)c1nc2ccc(SSc3ccc4nc(C(F)(F)F)[nH]c4c3)cc2[nH]1 | inconclusive: 1.7e-09 M
CN(Cc1ccccc1)Cc1ccccc1OC(=O)N(C)C | inconclusive: 1.2e-09 M

SMILES | max dye-equivalent concentration
Nc1ncnc2c1ncn2[C@@H]1O[C@@H](COP(=O)(O)CP(=O)(O)OP(=O)(O)O)[C@H](O)[C@@H]1O | inactive
CC(=O)NBr | inconclusive: 1.2e-09 M
Cc1c2ccncc2c(C)c2c1[nH]c1ccccc12 | inactive
C[C@]12CC[C@H](O)C[C@@H]1CC[C@H]1[C@H]2CC[C@]2(C)[C@H](C(=O)CO)CC[C@@H]12 | inconclusive: 1.2e-09 M
C=CCn1c(O)c(C(CC)=Nc2ccc(N(CC)CC)cc2)c(=O)[nH]c1=O | inconclusive: 1.9e-09 M
CC(=O)c1c(C)[nH]c(C(=O)N2CCC3(CC2)OCCO3)c1C | inconclusive: 1.2e-09 M
O=C1C2CCN(CC2)C1Cc1ccc(OCCOc2ccccc2)cc1 (stereo not drawn) | inconclusive: 1.9e-09 M
O=C1NC(=O)C2(Cc3ccccc3N3CCCC32)C(=O)N1c1ccc(Cl)cc1 (stereo not drawn) | inconclusive: 1.2e-09 M
CC(C)C[C@H]1C(=O)N2CCC[C@@H]2[C@]2(O)O[C@](NC(=O)[C@H]3C=C4c5cccc6[nH]cc(c56)C[C@H]4N(C)C3)(C(C)C)C(=O)N12 | inactive
CC(=NCCN1CCCCC1)c1c(O)[nH]c(=O)[nH]c1=O | inconclusive: 1.4e-09 M
CCCOc1ccccc1C1SCC(=O)Nc2c1c(=O)[nH]n2C(C)CCC (stereo not drawn) | inconclusive: 1.7e-09 M
O=S1(=O)CC2(N3CCOCC3)CCCCCCC21 (stereo not drawn) | inconclusive: 1.3e-09 M
C=CCn1c(O)c(C(C)=Nc2cc(OC)ccc2OC)c(=O)[nH]c1=O | inconclusive: 1.6e-09 M
c1ccc2c(NC3=NCCS3)cccc2c1 | inconclusive: 1.5e-09 M
Cc1cccc(C)c1NC1=NCCCS1 | inconclusive: 1.2e-09 M
CC1(C)COC(Nc2ccc(Cl)cc2)=N1 | inconclusive: 1.4e-09 M
CC12CN3CC(C)(CN(C1)C3c1cccs1)C2 (stereo not drawn) | inconclusive: 2.8e-09 M
COC(=O)N1CCN(C(=O)Cc2ccc(Cl)c(Cl)c2)[C@H](CN2CCCC2)C1 | inconclusive: 1.5e-09 M
COc1cc2c3c(c1OC)-c1cc(O)ccc1CC3NCC2 (stereo not drawn) | inconclusive: 1.2e-09 M
Cc1ccc(C)c(NC(=O)CSc2nnc([C@@H](N)Cc3c[nH]c4ccccc34)o2)c1 | inconclusive: 2.8e-09 M

From PubChem BioAssay AID587 (National Center for Advancing Translational Sciences (NCATS), 2007)
